Source: publication PMC5829277
No constants are given. Whether binding was seen depends on the method and setting. A result given as binding can be weak or reduced; the word gives no strength. Where a sequence is shown, tags or fusion partners need not be part of it. For part of these data: Binding seen in cells or lysates may run through a third protein.

The substances below were run against T1, BD-RGB1 (pBRIDGE bait), yeast three-hybrid (rice) (UniProt Q40687) (assay: yeast three-hybrid; pGADT7 prey vectors cotransformed with pBRIDGE bait vectors in yeast AH109; selected on SD/-LWM, interactions on SD/-LWMH, 5 mM 3-aminotriazole; liquid β-galactosidase assay with CPRG).
T1 sequence: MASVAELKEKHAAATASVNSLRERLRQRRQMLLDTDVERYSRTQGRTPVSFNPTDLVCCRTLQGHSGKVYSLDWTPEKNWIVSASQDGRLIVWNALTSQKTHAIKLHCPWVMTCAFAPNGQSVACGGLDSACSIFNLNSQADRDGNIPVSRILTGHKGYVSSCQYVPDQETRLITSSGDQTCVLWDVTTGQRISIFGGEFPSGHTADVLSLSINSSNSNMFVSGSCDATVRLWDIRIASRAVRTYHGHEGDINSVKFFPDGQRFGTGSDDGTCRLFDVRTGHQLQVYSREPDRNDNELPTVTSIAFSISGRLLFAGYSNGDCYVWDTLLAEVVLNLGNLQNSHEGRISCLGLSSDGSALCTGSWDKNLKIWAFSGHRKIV

binding | Substance
binds | AD-GGC2 (pGADT7-GGC2), yeast three-hybrid (rice)
binds | AD-GS3 (pGADT7-GS3), yeast three-hybrid (rice)
binds | GS3 expressed as the third protein in the yeast three-hybrid assay (rice)

The substances below were run against T2, RGB1-nLuc (rice) (UniProt Q40687) (assay: split reporter; split firefly luciferase (RGB1-nLuc plus cLuc fusions), transient expression in rice protoplasts, Luc normalised to 35S::REN).
T2 sequence: T1 sequence

binding | Substance
no binding | C-terminal cysteine-rich domain of GS3 (TV), split-luciferase fusion (rice) (domain or fragment)
binds | cLuc-GGC2 (rice)
binds | cLuc-GS3-1 (rice)
binds | cLuc-GS3-4 (rice) (domain or fragment)

These substances were tested against T3, RGB1 (G-beta subunit), yeast two-hybrid fusion (rice) (UniProt Q40687) (assay: two-hybrid; Matchmaker Two-Hybrid System (Clontech), PGADT7 and PGBKT7 fusions cotransformed into yeast AH109; selected on SD/-LW, interactions on SD/-LWHA).
T3 sequence: T1 sequence

binding | Substance
binds | GGC2, yeast two-hybrid fusion (rice)
binds | GS3-1 (wild-type GS3), yeast two-hybrid fusion (rice)
binds | OSR domain of GS3 (amino acid 1-94), yeast two-hybrid fusion (rice) (domain or fragment)

Each substance was assayed against T4, RGB1, BiFC fusion (rice) (UniProt Q40687) (assay: split reporter; BiFC, pSPYNE(R)173 and pSPYCE(MR) fusions in Arabidopsis protoplasts, incubated in the dark overnight, confocal fluorescence).
T4 sequence: T1 sequence

binding | Substance
binds | GGC2, BiFC fusion (rice)
binds | GS3-1, BiFC fusion (rice)

The substances below were run against T2, RGB1-nLuc (rice) (assay: split reporter; split firefly luciferase, competition: RGB1-nLuc plus cLuc-DEP1 or cLuc-GGC2 transiently expressed in protoplasts of ZH11, GS3-1OE and GS3-4OE, Luc normalised to 35S::REN).

binding | Substance
binds | GS3-1 overexpressed in GS3-1OE transgenic rice
binds | GS3-4 overexpressed in GS3-4OE transgenic rice (domain or fragment)
binds | cLuc-GGC2 (rice)
